The target in the experiment is CD44, standard form (CD44s), endogenous in MDA-MB-231 cells (human (endogenous in MDA-MB-231)) (UniProt P16070). Briefly: co-IP.

Chains of the proteins cited; added tags and fusions are not shown. Lines headed by an entry give the natural chain unless they say otherwise; changes in a name come on top. A line that says so, or that is headed by a name, gives the form on record, which may keep a tag or linker.
CD44, standard form (CD44s), endogenous in MDA-MB-231 cells (human (endogenous in MDA-MB-231)) (P16070, form named): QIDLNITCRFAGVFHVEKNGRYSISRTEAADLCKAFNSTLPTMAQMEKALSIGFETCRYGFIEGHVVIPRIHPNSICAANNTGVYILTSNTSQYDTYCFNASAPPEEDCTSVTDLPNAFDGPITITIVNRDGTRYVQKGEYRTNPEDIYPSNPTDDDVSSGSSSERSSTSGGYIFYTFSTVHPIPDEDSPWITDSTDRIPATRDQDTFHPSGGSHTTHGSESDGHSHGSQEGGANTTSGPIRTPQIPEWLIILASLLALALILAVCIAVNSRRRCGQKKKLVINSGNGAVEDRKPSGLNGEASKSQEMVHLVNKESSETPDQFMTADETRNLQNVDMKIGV

These results are taken from article doi:10.1101/2022.02.23.481674.

Results are given in words; binding and its absence hold for the method and conditions named. In cells and extracts the contact can be indirect. Some binding calls cover weakened binding; strength is not graded here.

B1: CD81, endogenous (protein, UniProt P60033 1-236)
chain: MGVEGCTKCIKYLLFVFNFVFWLAGGVILGVALWLRHDPQTTNLLYLELGDKPAPNTFYVGIYILIAVGAVMMFVGFLGCYGAIQESQCLLGTFFTCLVILFACEVAAGIWGFVNKDQIAKDVKQFYDQALQQAVVDDDANNAKAVVKTFHETLDCCGSSTLTALTTSVLKNNLCPSGSNIISNLFKEDCHQKIDDLFSGKLYLIGIAAIVVAVIMIFEMILSMVLCCGIRNSSVY
Take B1: the binding result is “binds”.
